Source: PubChem BioAssay AID504444 (National Center for Advancing Translational Sciences (NCATS), 2011)
Out of some 360,000 compounds screened, about 7,500 (2.1%) were called active. The inconclusive results got no clear call from the source; some entries with a clear call stand among them for comparison. Calls come from the whole dose curve; as a rule, active = well fitted inhibition curve with a large enough effect; inconclusive = small, poorly fitted or top-dose-only effect, or effect the other way; inactive = flat fitted curve, though single readings scatter. A potency beside an inconclusive call is a rough fit, not a confirmed value.

Experiment: Nrf2 qHTS screen for inhibitors; note: nearly all actives have a fitted effect of over 60% in size
Conditions: A549 ARE-Fluc reporter, luciferase luminescence, 18-24 h; series mostly up to 46 µM
Summary of the method: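 A549 ARE_Fluc cells, 5000/well, 5% FBS OPTI-MEM; compounds in dose-response, 18-24 h at 37 °C/5% CO2; CellTiter-Fluor viability read (Ex 405/Em 525), then BugLite luciferase luminescence = Nrf2 activity.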
Potency is the fitted concentration of half-maximal effect.

| SMILES | Potency |
| --- | --- |
| CC(NC(=O)c1ccccc1[N+](=O)[O-])C1CC2CCC1C2 (centres undefined) | inactive |
| C/C(=N\NC(=O)C1CC1)c1ccc(OC(F)F)cc1 | inconclusive: 16.4 µM [activator, single point] |
| O=C(Nc1ccc(F)c(Cl)c1)c1cccnc1 | inconclusive: 23.1 µM [activator, single point] |
| C=CCNc1nc2ccccc2nc1NS(=O)(=O)c1ccc(F)cc1 | inconclusive: 29.1 µM [falling, single point] |
| Nc1ccccc1C#Cc1ccc([N+](=O)[O-])cc1 | inconclusive: 29.1 µM [activator, single point] |
| COc1ccccc1N1CCN(C(=O)CCC(=O)N2CCN(c3ccc(F)cc3)CC2)CC1 | inconclusive: 13 µM [falling, partial curve, poor fit] |
| COc1ccc2cc(C3CC(c4ccco4)=NN3S(C)(=O)=O)c(Cl)nc2c1 (centres undefined) | inactive |
| COCCCNc1oc(-c2ccc(COc3ccc(Cl)cc3)o2)nc1C#N | active: 23.1 µM |
| CC#Cc1cc2c(cc1O)CCC1C2CCC2(C)C(O)CCC12 (centres undefined) | inactive |
| CC(=O)c1ccc(OCCCC(=O)N2CCN(S(=O)(=O)c3cc(C)ccc3C)CC2)cc1 | inconclusive: 32.6 µM [falling, partial curve, poor fit] |
| Cc1[nH]c2ccccc2c1-c1nc2ccccc2[nH]c1=O | inconclusive: 11.6 µM [activator, partial curve, poor fit] |
| CCN(CC)CCN(Cc1cc2cc3c(cc2[nH]c1=O)OCO3)C(=S)NCC1CCCO1 (centres undefined) | inconclusive: 9.2 µM [activator, partial curve, poor fit] |
| O=C1/C(=C/c2ccccc2[N+](=O)[O-])COc2ccccc21 | inconclusive: 3.66 µM [activator, single point] |
| COc1ccc(Cn2c(=O)c3oc4ccccc4c3n(Cc3ccc(Cl)cc3)c2=O)cc1 | inconclusive: 29.1 µM [activator, single point] |
| Nn1c(SCC(=O)NC2CCS(=O)(=O)C2)nnc1-c1ccco1 (centres undefined) | inactive |
| CSc1nc(-c2ccc(Cl)cc2)nc(N)c1C#N | inconclusive: 14.6 µM [falling, single point] |
| CCN(CC)CCCNC(=O)c1nn(C)c2c1CS(=O)(=O)c1ccccc1-2 | active: 18.4 µM |
| O=C(Nc1ccccc1Cl)c1ccc2nccnc2c1 | inconclusive: 8.2 µM [activator, partial curve] |
| COc1ccc(NC(=O)CN2c3cccc4cccc(c34)S2(=O)=O)c(OC)c1 | inactive |
| CCOC(=O)c1c(-c2ccc(C)cc2)csc1NC(=O)C1CCCO1 (centres undefined) | inconclusive: 18.4 µM [falling, partial curve, poor fit] |
| COc1ccc(NC(=O)c2c(-c3ccc(C)cc3)nnc3ccccc23)c(OC)c1 | inconclusive: 29.1 µM [activator, single point] |
| COc1cc2[nH]c(=O)c(C(=O)NCCCN3CCCCC3)c(O)c2cc1OC | inactive |

| SMILES | Potency |
| --- | --- |
| CCSC1=NC2(CCN(C(=O)NC3CCCCC3)CC2)N=C1c1ccc(Cl)cc1 | inconclusive: 9.2 µM [activator, partial curve] |
| COC(=O)C1=C(NC(=O)c2ccccc2[N+](=O)[O-])CCS1 | inconclusive: 0.0052 µM [falling, full curve, poor fit] |
| CCCCCc1nnc(NC(=O)C2=COCCO2)s1 | inconclusive: 5.8 µM [activator, full curve] |
| O=C(CN1C(=O)c2ccccc2C1=O)N1CCOCC1 | inactive |
| CC(=O)N(c1ccccc1)c1nc2ccccc2s1 | inconclusive: 23.1 µM [activator, partial curve, poor fit] |
| COc1ccc(C(=O)NCCn2cc(SCC(=O)Nc3nnc(C)s3)c3ccccc32)cc1 | active: 10.3 µM |
| CC(C)n1c(O)c(N=NC(=O)C2COc3ccccc3O2)c2ccccc21 (centres undefined) | inconclusive: 20.6 µM [falling, single point] |
| O=C1c2ccccc2NC(c2ccc(-c3cccs3)o2)N1O (centres undefined) | inconclusive: 5.8 µM [activator, full curve] |
| CCOc1ccc2nc(N(CCN(CC)CC)C(=O)c3cccc([N+](=O)[O-])c3)sc2c1 | inconclusive: 16.4 µM [activator, partial curve] |
| COc1ccc2c(C)nc(Nc3nc(-c4ccccc4)cc(=O)[nH]3)nc2c1 | inconclusive: 5.8 µM [activator, single point] |
| O=C(c1ccccn1)c1cc2ccccc2n1S(=O)(=O)c1ccccc1 | inconclusive: 4.61 µM [activator, full curve, poor fit] |
| O=C(CN1C(=O)NC2(CCCC2)C1=O)NC(c1ccccc1)c1ccccc1 | inactive |
| O=[N+]([O-])c1cc([N+](=O)[O-])c(N2CCCCCC2)cc1NCCO | inconclusive: 32.6 µM [falling, single point] |
| Cc1ccc(OCC(=O)Nc2cc(C)on2)c([N+](=O)[O-])n1 | inconclusive: 5.17 µM [activator, full curve] |
| O=S(=O)(Nc1ccc2c(c1)OCCO2)c1cccc(F)c1 | inconclusive: 0.0731 µM [falling, full curve, poor fit] |
| NC1=NC(=Nc2ccc(Cl)cc2)c2ccccc21 | inconclusive: 0.184 µM [activator, full curve, poor fit] |
| Cc1ccccc1C(=O)N1CCC(C(=O)N2CCCc3ccccc32)CC1 | inactive |
| Nc1ccc(Nc2nc(-c3cccs3)cs2)cc1 | inconclusive: 25.9 µM [activator, single point] |
| COc1ccc(C2Nc3ccccc3C(=O)N2c2ccc(C)cc2)cc1Cn1cc([N+](=O)[O-])cn1 (centres undefined) | inconclusive: 2.91 µM [activator, full curve] |
| CCOc1ccc(NC(=O)c2ccccc2NC(=O)c2cccnc2)cc1 | inactive |
| Cc1ccc(NC(=O)c2sc3nc4c(cc3c2N)CN(Cc2ccccc2)CC4)cc1 | inconclusive: 4.11 µM [activator, full curve] |
| COc1ccccc1NC(=O)C1C2CCCCC21 (centres undefined) | inconclusive: 7.31 µM [activator, partial curve, poor fit] |

12 compounds already listed, ordered by length of the SMILES, largest number first:

| SMILES | Potency |
| --- | --- |
| CCN(CC)CCN(Cc1cc2cc3c(cc2[nH]c1=O)OCO3)C(=S)NCC1CCCO1 (centres undefined) | inconclusive: 9.2 µM [activator, partial curve, poor fit] |
| CCSC1=NC2(CCN(C(=O)NC3CCCCC3)CC2)N=C1c1ccc(Cl)cc1 | inconclusive: 9.2 µM [activator, partial curve] |
| COc1cc2[nH]c(=O)c(C(=O)NCCCN3CCCCC3)c(O)c2cc1OC | inactive |
| CC(C)n1c(O)c(N=NC(=O)C2COc3ccccc3O2)c2ccccc21 (centres undefined) | inconclusive: 20.6 µM [falling, single point] |
| CC(NC(=O)c1ccccc1[N+](=O)[O-])C1CC2CCC1C2 (centres undefined) | inactive |
| C=CCNc1nc2ccccc2nc1NS(=O)(=O)c1ccc(F)cc1 | inconclusive: 29.1 µM [falling, single point] |
| Cc1[nH]c2ccccc2c1-c1nc2ccccc2[nH]c1=O | inconclusive: 11.6 µM [activator, partial curve, poor fit] |
| O=C1c2ccccc2NC(c2ccc(-c3cccs3)o2)N1O (centres undefined) | inconclusive: 5.8 µM [activator, full curve] |
| Nc1ccccc1C#Cc1ccc([N+](=O)[O-])cc1 | inconclusive: 29.1 µM [activator, single point] |
| NC1=NC(=Nc2ccc(Cl)cc2)c2ccccc21 | inconclusive: 0.184 µM [activator, full curve, poor fit] |
| O=C(Nc1ccc(F)c(Cl)c1)c1cccnc1 | inconclusive: 23.1 µM [activator, single point] |
| COc1ccccc1NC(=O)C1C2CCCCC21 (centres undefined) | inconclusive: 7.31 µM [activator, partial curve, poor fit] |
